# Measured values reported in US20080194545A1, “ANTIMICROBIAL COMPOSITIONS AND METHODS OF USE” (TRIUS THERAPEUTICS, priority 2007, published 2008).
# Some of these results come from one statement about several compounds together.
# System: S. aureus
# Assay: Antibacterial activity, minimal inhibitory concentration (MIC) against S. aureus
# Format: cell-based, Staphylococcus aureus
# From the text: Antibacterial activity as measured by the minimal inhibitory concentrations (MIC) and minimal bactericidal concentrations of compounds are well known (see., e.g., National Committee for Clinical Laboratory Standards 2000 Performance standards for antimicrobial disk susceptibility tests: approved standard, 7th ed. M2-A7, vol. 20, no. 1, Committee for Clinical Laboratory Standards, Wayne, Pa.)
# In vitro testing for antibacterial activity may be accomplished through use of a whole-cell bacterial growth inhibition assay. For example, an […] assay identifies a substance that inhibits bacterial growth. Microtiter plates are prepared with serial dilutions of the test compound, adding to the preparation a given amount of growth substrate, and providing a preparation of bacteria. Inhibition of bacterial growth is determined, for example, by observing changes in optical densities of the bacterial cultures. Inhibition of bacterial growth is determined, for example, by comparing (in the presence and absence of a test compound) the rate of growth or the absolute growth of bacterial cells. Inhibition includes a reduction of one of the above measurements by at least 20%.
row,Compound,MIC values against S. aureus
1,Clc1ccc(Oc2cc(N3CCOCC3)nc(NCc3nc4ccccc4[nH]3)n2)c(Cl)c1 [Compound 5.01],Compounds with MIC values ≦8 μg/mL against S. aureus.
2,COc1ccc(Oc2cc(N3CCOCC3)nc(NNc3cc(=O)c4ccccc4[nH]3)n2)c(Cl)c1 [Compound 5.05],Compounds with MIC values ≦8 μg/mL against S. aureus.
3,COc1ccc(Oc2cc(N(C)C)nc(NNc3cc(=O)c4ccccc4[nH]3)n2)c(Cl)c1 [Compound 5.06],Compounds with MIC values ≦8 μg/mL against S. aureus.
4,COc1ccc(Oc2cc(N(C)C)nc(NCc3nc4ccccc4[nH]3)n2)cc1OC [Compound 5.09],Compounds with MIC values ≦8 μg/mL against S. aureus.
5,N#CCCN1CCN(c2cc(Oc3ccc(Cl)cc3Cl)nc(NCc3nc4ccccc4[nH]3)n2)CC1 [Compound 5.12],Compounds with MIC values ≦8 μg/mL against S. aureus.
6,CS(=O)(=O)c1cc(Oc2ccc(Cl)cc2Cl)nc(NCc2nc3ccccc3[nH]2)n1 [Compound 5.17],Compounds with MIC values ≦8 μg/mL against S. aureus.
7,COc1ccc(Oc2cc(N3CCN(CCO)CC3)nc(NCc3nc4ccccc4[nH]3)n2)c(Cl)c1 [Compound 5.30],Compounds with MIC values ≦8 μg/mL against S. aureus.
8,COc1ccc(Oc2cc(N3CCN(CCN)CC3)nc(NCc3nc4ccccc4[nH]3)n2)c(Cl)c1 [Compound 5.32],Compounds with MIC values ≦8 μg/mL against S. aureus.
9,COc1ccc(Oc2cc(N3CCN(C(C)=O)CC3)nc(NCc3nc4ccccc4[nH]3)n2)c(Cl)c1 [Compound 5.54],Compounds with MIC values ≦8 μg/mL against S. aureus.
10,COc1ccc(Oc2cc(N3CCNC(=O)C3)nc(NCc3nc4ccccc4[nH]3)n2)c(Cl)c1 [Compound 5.55],Compounds with MIC values ≦8 μg/mL against S. aureus.
11,COc1ccc(Oc2cc(NNc3cc(=O)c4ccccc4[nH]3)nc(N3CCOCC3)n2)c(Cl)c1 [Compound 6.05],Compounds with MIC values ≦8 μg/mL against S. aureus.
12,COc1ccc(Oc2cc(NCc3nc4cc(C)c(C)cc4[nH]3)nc(N3CCOCC3)n2)c(Cl)c1 [Compound 6.07],Compounds with MIC values ≦8 μg/mL against S. aureus.
13,Clc1ccc(Oc2cc(NCc3nc4ccccc4[nH]3)ncn2)c(Cl)c1 [Compound 6.12],Compounds with MIC values ≦8 μg/mL against S. aureus.
14,Clc1ccc(Oc2cc(NCc3nc4ccccc4[nH]3)nc(N3CCOCC3)n2)c(Cl)c1 [Compound 6.15],Compounds with MIC values ≦8 μg/mL against S. aureus.
15,COc1ccc(Oc2cc(NCc3nc4ccccc4[nH]3)nc(N3CCCC3CO)n2)c(Cl)c1 (centres unmarked) [Compound 6.29],Compounds with MIC values ≦8 μg/mL against S. aureus.
16,CCN1CCN(c2nc(NCc3nc4ccccc4[nH]3)cc(Oc3ccc(OC)cc3Cl)n2)CC1 [Compound 6.44],Compounds with MIC values ≦8 μg/mL against S. aureus.
17,CCS(=O)(=O)N1CCN(c2nc(NCc3nc4ccccc4[nH]3)cc(Oc3ccc(OC)cc3Cl)n2)CC1 [Compound 6.46],Compounds with MIC values ≦8 μg/mL against S. aureus.
18,COc1ccc(Oc2cc(NCc3nc4ccccc4[nH]3)nc(N3CCCNCC3)n2)c(Cl)c1 [Compound 6.47],Compounds with MIC values ≦8 μg/mL against S. aureus.
19,COc1ccc(Oc2cc(NCc3nc4ccccc4[nH]3)nc(N3CCSCC3)n2)c(Cl)c1 [Compound 6.58],Compounds with MIC values ≦8 μg/mL against S. aureus.
20,COc1ccc(Oc2cc(NCc3nc4ccccc4[nH]3)nc(N3CCS(=O)(=O)CC3)n2)c(Cl)c1 [Compound 6.59],Compounds with MIC values ≦8 μg/mL against S. aureus.
21,COc1ccc(Oc2cc(NCc3nc4ccccc4[nH]3)nc(N3CCN(c4ccccn4)CC3)n2)c(Cl)c1 [Compound 6.60],Compounds with MIC values ≦8 μg/mL against S. aureus.
22,O=C1CN(c2nc(NCc3nc4ccccc4[nH]3)cc(Oc3cc4c(cc3Cl)OCO4)n2)CCN1 [Compound 6.76],Compounds with MIC values ≦8 μg/mL against S. aureus.

row,Compound,MIC values against S. aureus
1,COc1cc(Cl)c(Oc2cc(NCc3nc4ccccc4[nH]3)nc(N3CCN(CCO)CC3)n2)cc1OC [Compound 6.84],Compounds with MIC values ≦8 μg/mL against S. aureus.
2,COc1cc(Cl)c(Oc2cc(NCc3nc4ccccc4[nH]3)nc(N3CCN(CCN(C)C)CC3)n2)cc1OC [Compound 6.85],Compounds with MIC values ≦8 μg/mL against S. aureus.
3,COc1ccc(Oc2cc(NCc3nc4ccccc4[nH]3)nc(N3CCN(c4ncccn4)CC3)n2)cc1OC [Compound 6.97],Compounds with MIC values ≦8 μg/mL against S. aureus.
4,COc1ccc(Oc2cc(NCc3nc4ccccc4[nH]3)nc(N3CCN(c4cnccn4)CC3)n2)cc1OC [Compound 6.98],Compounds with MIC values ≦8 μg/mL against S. aureus.
5,COc1ccnc(N2CCN(c3nc(NCc4nc5ccccc5[nH]4)cc(Oc4ccc(OC)c(OC)c4)n3)CC2)n1 [Compound 6.99],Compounds with MIC values ≦8 μg/mL against S. aureus.
6,COc1cccc(N2CCN(c3nc(NCc4nc5ccccc5[nH]4)cc(Oc4cc(OC)c(OC)cc4Cl)n3)CC2)n1 [Compound 6.100],Compounds with MIC values ≦8 μg/mL against S. aureus.
7,COc1ccc(Oc2cc(NCc3nc4ccccc4[nH]3)nc(N3CCN(c4cnccn4)CC3)n2)c(Cl)c1 [Compound 6.101],Compounds with MIC values ≦8 μg/mL against S. aureus.
8,COc1ccc(Oc2cc(NCc3nc4ccccc4[nH]3)nc(N3CCN(c4ncccn4)CC3)n2)c(Cl)c1 [Compound 6.102],Compounds with MIC values ≦8 μg/mL against S. aureus.
9,COc1ccc(Oc2cc(NCc3nc4ccccc4[nH]3)nc(N3CCN(c4nccc(OC)n4)CC3)n2)c(Cl)c1 [Compound 6.103],Compounds with MIC values ≦8 μg/mL against S. aureus.
10,COc1cc(Cl)c(Oc2cc(NCc3nc4ccccc4[nH]3)nc(N3CCNC(=O)CC3)n2)cc1OC [Compound 6.104],Compounds with MIC values ≦8 μg/mL against S. aureus.
11,COc1cc(Cl)c(Oc2cc(NCc3nc4ccccc4[nH]3)nc(N3CCN(C(=O)C(F)(F)F)CC3)n2)cc1OC [Compound 6.106],Compounds with MIC values ≦8 μg/mL against S. aureus.
12,COc1cc(Cl)c(Oc2cc(NCc3nc4ccccc4[nH]3)nc(N3CCN(c4ncnc5ccsc45)CC3)n2)cc1OC [Compound 6.119],Compounds with MIC values ≦8 μg/mL against S. aureus.
13,COc1cc(Cl)c(Oc2cc(NCc3nc4ccccc4[nH]3)nc(N3CCN(c4ccc(C#N)cn4)CC3)n2)cc1OC [Compound 6.130],Compounds with MIC values ≦8 μg/mL against S. aureus.
14,COc1cc(Cl)c(Oc2cc(NCc3nc4ccccc4[nH]3)nc(N3CCN(c4ncc(C(F)(F)F)s4)CC3)n2)cc1OC [Compound 6.131],Compounds with MIC values ≦8 μg/mL against S. aureus.
15,COc1cc(Cl)c(Oc2cc(NCc3nc4ccccc4[nH]3)nc(N3CCN(C(C)c4ccccn4)CC3)n2)cc1OC (centres unmarked) [Compound 6.133],Compounds with MIC values ≦8 μg/mL against S. aureus.
16,COc1cc(Cl)c(Oc2cc(NCc3nc4ccccc4[nH]3)nc(N3CCN(c4nc(C)cnc4C)CC3)n2)cc1OC [Compound 6.135],Compounds with MIC values ≦8 μg/mL against S. aureus.
17,COc1cc(Cl)c(Oc2cc(NCc3nc4ccccc4[nH]3)nc(N3CCN(Cc4csc(C)n4)CC3)n2)cc1OC [Compound 6.137],Compounds with MIC values ≦8 μg/mL against S. aureus.
18,COc1cc(Cl)c(Oc2cc(NCc3nc4ccccc4[nH]3)nc(N3CCC(n4cc(-c5ccccc5)cn4)CC3)n2)cc1OC [Compound 6.141],Compounds with MIC values ≦8 μg/mL against S. aureus.
19,COc1cc(Cl)c(Oc2cc(NCc3nc4ccccc4[nH]3)nc(N3CCC(C(C)N4CCOCC4)CC3)n2)cc1OC (centres unmarked) [Compound 6.146],Compounds with MIC values ≦8 μg/mL against S. aureus.
20,COc1cc(Cl)c(Oc2cc(NCc3nc4ccccc4[nH]3)nc(N3CCC(N4CCOCC4)C3)n2)cc1OC (centres unmarked) [Compound 6.147],Compounds with MIC values ≦8 μg/mL against S. aureus.
21,COc1cc(Cl)c(Oc2cc(NCc3nc4ccccc4[nH]3)nc(N3CCC(C(O)c4cccs4)CC3)n2)cc1OC (centres unmarked) [Compound 6.148],Compounds with MIC values ≦8 μg/mL against S. aureus.
22,COc1cc(Cl)c(Oc2cc(NCc3nc4ccccc4[nH]3)nc(N3CCN(c4cc(N5CCOCC5)ncn4)CC3)n2)cc1OC [Compound 6.149],Compounds with MIC values ≦8 μg/mL against S. aureus.
